{"sequences": {"note": "The chains behind the UniProt entries cited, without tags or fusion partners. Where a name states a change or a piece, a line headed by the entry shows the natural chain unless it says otherwise.", "UniProt P46063": "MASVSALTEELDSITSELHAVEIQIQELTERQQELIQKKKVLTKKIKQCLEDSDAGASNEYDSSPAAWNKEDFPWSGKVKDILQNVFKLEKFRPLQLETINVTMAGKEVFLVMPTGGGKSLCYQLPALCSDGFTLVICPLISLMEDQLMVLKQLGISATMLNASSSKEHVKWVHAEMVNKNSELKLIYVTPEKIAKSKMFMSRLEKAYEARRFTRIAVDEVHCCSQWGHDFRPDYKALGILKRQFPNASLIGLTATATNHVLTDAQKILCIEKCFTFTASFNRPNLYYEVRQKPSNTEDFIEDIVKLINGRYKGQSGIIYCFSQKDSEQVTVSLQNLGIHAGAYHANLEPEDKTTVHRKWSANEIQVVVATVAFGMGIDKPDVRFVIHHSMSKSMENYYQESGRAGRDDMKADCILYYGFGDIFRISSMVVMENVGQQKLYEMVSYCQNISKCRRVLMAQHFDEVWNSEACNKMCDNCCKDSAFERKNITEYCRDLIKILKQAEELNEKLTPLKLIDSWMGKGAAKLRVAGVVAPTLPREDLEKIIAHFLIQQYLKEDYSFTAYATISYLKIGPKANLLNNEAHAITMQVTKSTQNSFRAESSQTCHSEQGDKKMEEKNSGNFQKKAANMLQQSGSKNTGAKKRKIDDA"}, "source": "PubChem BioAssay AID2549", "about": "(National Center for Advancing Translational Sciences (NCATS), 2010)", "note": "Among all 240,000 compounds or so, about 1,300 (0.54%) were called active. The shares of active, inactive and inconclusive entries below differ from those in the screen. Calls follow the shape of the dose curve; as a rule, active = well fitted inhibition curve with a large enough effect; inconclusive = small, poorly fitted or top-dose-only effect; inactive = flat fitted curve, though single readings scatter. Potencies of inconclusive entries are doubtful fits and often do not repeat. Potency is read from the fitted curve at half-maximal effect."}
{"molecular_target": "ATP-dependent DNA helicase Q1 (Homo sapiens) (UniProt P46063)", "assay": "qHTS Assay for Inhibitors of RecQ-Like Dna Helicase 1 (RECQ1); also: nearly all actives have a fitted effect of over 30% in size;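 as to activity, negative = inhibition: plate controls were vehicle for no effect and no enzyme for full effect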", "details": "RECQ1 DNA unwinding, red fluorescence kinetic read; activity, negative = inhibition: at 57.3 µM (top of the series); series mostly up to 57.3 µM", "procedure,_shortened": "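RECQ1T1 50 nM; forked duplex (20 bp + 30-nt ss tails) 200 nM, ATP 2 mM final; pH 8.0, 2 mM MgCl2, 2.5 ug/ml poly(dI-dC); 15 min compound preincubation; discontinuous kinetic read over 2 h at RT.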"}
{"smiles": "Cn1ccc2cc(NC(=O)Nc3cccnc3)ccc21", "Potency": "inconclusive: 7.94 µM [inhibitor, full curve]"}
{"smiles": "CC(=O)[C@]1(O)Cc2c(O)c3c(c(O)c2[C@@H](O[C@H]2C[C@H](N)[C@H](O)[C@H](C)O2)C1)C(=O)c1ccccc1C3=O", "Potency": "active: 28.2 µM"}
{"smiles": "COc1ccc(-n2c(C)cc(/C=C/c3nc(O)c([N+](=O)[O-])c(=O)[nH]3)c2C)cc1", "Potency": "inconclusive: 31.6 µM [inhibitor, single point]"}
{"smiles": "COc1cccc(OC)c1-c1nn2c(-c3ccco3)nnc2s1", "Potency": "inconclusive: 1.12 µM [inhibitor, full curve]"}
{"smiles": "CC(C)(C)c1ccc(OCC2CO2)cc1", "note": "(centres undefined)", "activity, negative = inhibition": "inactive: -0.831%"}
{"smiles": "CCOC(=O)c1c(C)oc2ccc(NS(=O)(=O)c3ccc(C(=O)O)cc3)cc12", "outcome": "inactive"}
{"smiles": "C=CCn1c(O)c(N=NC(=O)CNC(=O)/C=C/c2ccco2)c2ccccc21", "Potency": "inconclusive: 39.8 µM [inhibitor, single point]"}
{"smiles": "Cc1ccc(NC(=O)c2ccccc2OCC(=O)c2ccc(F)cc2)cc1", "Potency": "inconclusive: 8.91 µM [inhibitor, single point]"}
{"smiles": "CN1CCc2c(sc(/N=C/c3c[nH]c4ccccc34)c2C#N)C1", "Potency": "inconclusive: 39.8 µM [inhibitor, single point]"}
{"smiles": "Cc1oc(C)c2c(=O)ccc3c(c12)OC(N)=C(C#N)C3c1ccccc1", "note": "(centres undefined)", "Potency": "inconclusive: 35.5 µM [inhibitor, single point]"}
{"smiles": "O=C(O)c1ccc(-n2cccc2/C=N\\NC(=O)c2cc3cc(Br)ccc3o2)cc1", "Potency": "inconclusive: 15.8 µM [inhibitor, single point]"}
{"smiles": "Cn1c(C(=O)OCC(=O)NCc2ccco2)cc2sccc21", "Potency": "inconclusive: 0.112 µM [inhibitor, partial curve, poor fit]"}
{"smiles": "CC(Sc1nnc(C(F)(F)F)n1C)C(=O)NC(N)=O", "note": "(centres undefined)", "Potency": "inconclusive: 4.47 µM [inhibitor, full curve]"}
{"smiles": "O=[N+]([O-])c1ccc(O)c2cccnc12", "activity, negative = inhibition": "inactive: -5.43%"}
{"smiles": "Cc1oc2c(c1C(=O)c1ccc(Cl)cc1)C(=O)C(=O)c1ccccc1-2", "Potency": "inconclusive: 39.8 µM [inhibitor, single point]"}
{"smiles": "CCOCCCNC(=O)/C=C1\\Sc2ccccc2N(Cc2ccccc2F)C1=O", "Potency": "inconclusive: 39.8 µM [inhibitor, single point]"}
{"smiles": "O=C(O)CCC(=O)N1CCN(c2ccccn2)CC1", "Potency": "inconclusive: 14.1 µM [inhibitor, partial curve]"}
{"smiles": "CCOC(=O)C1=C(c2ccccc2)N=c2s/c(=C\\c3ccco3)c(=O)n2C1c1cccs1", "note": "(centres undefined)", "Potency": "inconclusive: 6.31 µM [inhibitor, single point]"}
{"smiles": "O=c1c(C(c2ccc(O)cc2)c2c(O)nc3n(c2=O)CCCS3)c(O)nc2n1CCCS2", "Potency": "inconclusive: 39.8 µM [inhibitor, single point]"}
{"smiles": "Cc1[nH]ccc(=O)c1OCc1ccccc1", "activity, negative = inhibition": "inactive: 3.3%"}
{"smiles": "Cc1ccc(OCc2nnc(NC(=O)c3ccco3)s2)cc1", "Potency": "inconclusive: 0.158 µM [inhibitor, full curve, poor fit]"}
{"smiles": "O=c1/c(=C\\c2cc([N+](=O)[O-])cc([N+](=O)[O-])c2O)sc2nc3ccccc3n12", "Potency": "active: 14.1 µM"}
{"smiles": "Cc1nc2cc(-c3ccsc3-n3c(C)ccc3C)[nH]n2c(=O)c1Cl", "Potency": "active: 2.82 µM"}
{"smiles": "O=C(CN1CCN(c2ccc(O)cc2)CC1)Nc1ccc2c(c1)OCCO2", "Potency": "inconclusive: 35.5 µM [inhibitor, single point]"}
{"smiles": "CC(/C=N/NC(=O)Cc1cccn1C)=C\\c1ccco1", "Potency": "inconclusive: 35.5 µM [inhibitor, single point]"}
{"smiles": "Cc1ccc(N2C(=O)c3ccccc3C2C(=O)c2ccc(O)cc2O)cc1", "note": "(centres undefined)", "Potency": "active: 14.1 µM"}
{"smiles": "CCOP(=O)(c1ccccc1)c1nc(-c2ccccc2C)oc1N1CCCCC1", "note": "(centres undefined)", "Potency": "inconclusive: 14.1 µM [inhibitor, partial curve, poor fit]"}
{"smiles": "O=C(CCN1CCOCC1)Nc1ccc2c(c1)N(C(=O)CN1CCOCC1)c1ccccc1CC2", "Potency": "inconclusive: 3.98 µM [inhibitor, full curve, poor fit]"}
{"smiles": "CCC(c1nnnn1Cc1ccco1)N(Cc1ccccc1OC)Cc1cc2cc(C)ccc2[nH]c1=O", "note": "(centres undefined)", "outcome": "inactive"}
{"smiles": "Nc1ccc2c(c1)-c1ccccc1S(=O)(=O)N2", "Potency": "inconclusive: 39.8 µM [inhibitor, single point]"}
{"smiles": "C=CCCCCCCCCCCC/C=C/C(O)COC(C)=O", "note": "(centres undefined)", "Potency": "inconclusive: 1.12 µM [inhibitor, full curve, poor fit]"}
{"smiles": "COc1ccc(OC)c(S(=O)(=O)n2cnc3cc(C)c(C)cc32)c1", "Potency": "inconclusive: 4.47 µM [inhibitor, partial curve]"}
{"smiles": "Nc1ccc2nn(-c3cccc4ccccc34)nc2c1", "activity, negative = inhibition": "inactive: 6.61%"}
{"smiles": "COC(=O)CSc1nc2c(c(-c3ccco3)c1C#N)CCCC2", "Potency": "active: 35.5 µM"}
{"smiles": "Cc1ccc(S(=O)(=O)NCC(=O)N(CC(=O)NC2CCCCC2)CC2CCCO2)cc1", "note": "(centres undefined)", "Potency": "inconclusive: 0.0562 µM [inhibitor, full curve, poor fit]"}
{"smiles": "CC(=O)N(C)/C=C1\\Sc2ccccc2C1=O", "Potency": "inconclusive: 25.1 µM [inhibitor, partial curve, poor fit]"}
{"smiles": "COC(=O)c1cc(NC(=O)c2cc(C)oc2C)cc(C(=O)OC)c1", "Potency": "inconclusive: 39.8 µM [inhibitor, single point]"}
{"smiles": "N=C(N)S/C=C\\C(=O)O", "Potency": "inactive"}
{"smiles": "COc1ccc(OC)c(S(=O)(=O)Nc2ccc(O)c(Sc3ncn[nH]3)c2)c1", "Potency": "inconclusive: 39.8 µM [inhibitor, partial curve]"}
{"smiles": "Cc1nc2ccc(N=NC3=C(O)CCCC3=O)cc2s1", "Potency": "active: 1 µM"}
{"smiles": "CC1CN=C2C(C(=O)Nc3ccccc3)=C(O)CC(c3ccccc3)N21", "note": "(centres undefined)", "Potency": "inconclusive: 0.158 µM [inhibitor, full curve, poor fit]"}
{"smiles": "CC1=Nc2cc(C(=O)O)ccc2Sc2ccc(Br)cc21", "Potency": "active: 0.316 µM"}
{"smiles": "S=c1[nH]nc(-c2cc(-c3ccccc3)n[nH]2)n1/N=C/c1c2ccccc2cc2ccccc12", "Potency": "inconclusive: 39.8 µM [inhibitor, single point]"}
{"smiles": "CCc1nnc(NS(=O)(=O)c2ccc(N/C=C\\C(=O)c3cccc4ccccc34)cc2)s1", "Potency": "inconclusive: 35.5 µM [inhibitor, single point]"}
{"smiles": "O=C(Nc1ccc(C(=O)N2CCCCC2)cc1)c1ccc(Br)cc1", "activity, negative = inhibition": "inactive: -1.99%"}
{"smiles": "COc1cccc(/C=N/NC(=O)CNC(=O)CCc2ccccc2)c1O", "activity, negative = inhibition": "inactive: -12%"}
{"smiles": "O=C(CNc1ccc(F)cc1)N/N=C1\\CCCc2ccccc21", "Potency": "inconclusive: 6.31 µM [inhibitor, partial curve, poor fit]"}
{"smiles": "c1ccc(-c2cc(N3CCCCC3)ncn2)cc1", "Potency": "inconclusive: 39.8 µM [inhibitor, single point]"}
{"smiles": "Cc1cc(C(=O)N/N=C/c2cc(Br)cc(Br)c2OC(=O)c2ccccc2)n[nH]1", "Potency": "inconclusive: 1 µM [inhibitor, full curve]"}
{"smiles": "CC(=O)Nc1ccc(S(=O)(=O)/N=C2\\SCCN2S(=O)(=O)c2ccc(NC(C)=O)cc2)cc1", "Potency": "inconclusive: 35.5 µM [inhibitor, single point]"}
{"smiles": "O=C(O)c1ccc2c3c(cccc13)C(=O)N(c1ccccc1)C2=O", "Potency": "inconclusive: 31.6 µM [inhibitor, single point]"}
{"smiles": "Cc1c(C(=O)OCc2ccccc2)[nH]c2c1C(=O)CC(c1ccco1)C2", "note": "(centres undefined)", "Potency": "active: 31.6 µM"}
{"smiles": "Oc1cccc(/C=N/NC(=S)Nc2cccnc2)c1O", "Potency": "inconclusive: 2.82 µM [inhibitor, full curve, poor fit]"}
{"smiles": "COC(=O)c1c(NC(=O)/C=C/C(=O)O)sc(C)c1-c1ccc(C(C)C)cc1", "Potency": "inconclusive: 35.5 µM [inhibitor, single point]"}
{"smiles": "Cc1ccc(/C=N/NC(=O)C2CCN(Cc3ccc(F)cc3Cl)CC2)o1", "Potency": "inconclusive: 6.31 µM [inhibitor, single point]"}
{"smiles": "O=C(Cc1cccs1)Nc1ccc(S(=O)(=O)Nc2ncccn2)cc1", "Potency": "inconclusive: 39.8 µM [inhibitor, single point]"}
{"smiles": "CC1(C)CC(=O)C2=C(C1)N1C(=C(C#N)C2c2ccc(Cl)cc2)N=C(N)c2ccccc21", "note": "(centres undefined)", "Potency": "inconclusive: 28.2 µM [inhibitor, partial curve]"}
{"smiles": "Cc1ccccc1N=Cc1cccc(O)c1O", "Potency": "inconclusive: 31.6 µM [inhibitor, single point]"}
{"smiles": "Cc1c(Br)c(O)c(Br)c2sc(=O)oc12", "Potency": "active: 22.4 µM"}
{"smiles": "Cn1cccc1-c1nc2ccccc2[nH]1", "Potency": "inconclusive: 39.8 µM [inhibitor, partial curve]"}
{"smiles": "O=C(COc1ccc(S(=O)(=O)NC2CCCCC2)cc1)NCC1CCCO1", "note": "(centres undefined)", "Potency": "inconclusive: 0.141 µM [inhibitor, full curve, poor fit]"}
{"smiles": "O=C(CCC(=O)N(CC(=O)NC1CCCCC1)CC1CCCO1)Nc1nccs1", "note": "(centres undefined)", "activity, negative = inhibition": "inactive: -1.56%"}
{"smiles": "Cc1[nH]c(=O)c(C(=O)/C=C/c2ccccc2F)c2c1CCCC2", "Potency": "active: 31.6 µM"}
{"smiles": "COc1cccc(=O)c2c(C)n(CC(=O)c3ccccc3)c(C)c12", "activity, negative = inhibition": "inactive: -17.6%"}
{"smiles": "O=C(COC(=O)c1c2c(nc3ccccc13)/C(=C\\c1cccs1)CCC2)Nc1ccccc1", "activity, negative = inhibition": "inactive: -18.4%"}
{"smiles": "O=C(O)C1CCCN1C(=O)OCc1ccccc1", "note": "(centres undefined)", "Potency": "inconclusive: 25.1 µM [inhibitor, partial curve, poor fit]"}
{"smiles": "COc1ccc(/C=C2\\SC(=O)NC2=S)cc1OC", "Potency": "active: 31.6 µM"}
{"smiles": "Cc1cc(/C=C/c2ccc3cc(N(C)C)ccc3[n+]2C)c(C)n1-c1ccccc1", "Potency": "active: 25.1 µM"}
{"smiles": "CCC(C)NC(=O)c1cc2cc3ccc(OC)cc3nc2s1", "note": "(centres undefined)", "Potency": "inconclusive: 39.8 µM [inhibitor, single point]"}
